From article PMC2233675
No constants are given. Whether binding was seen depends on the method and setting. Binding seen in cells or lysates may run through a third protein. Some binding calls cover weakened binding; strength is not graded here. Where a sequence is shown, tags or fusion partners need not be part of it.

Target: T1, Drosophila Rad9, FLAG-tagged (Drosophila) (UniProt O96533)
T1 sequence: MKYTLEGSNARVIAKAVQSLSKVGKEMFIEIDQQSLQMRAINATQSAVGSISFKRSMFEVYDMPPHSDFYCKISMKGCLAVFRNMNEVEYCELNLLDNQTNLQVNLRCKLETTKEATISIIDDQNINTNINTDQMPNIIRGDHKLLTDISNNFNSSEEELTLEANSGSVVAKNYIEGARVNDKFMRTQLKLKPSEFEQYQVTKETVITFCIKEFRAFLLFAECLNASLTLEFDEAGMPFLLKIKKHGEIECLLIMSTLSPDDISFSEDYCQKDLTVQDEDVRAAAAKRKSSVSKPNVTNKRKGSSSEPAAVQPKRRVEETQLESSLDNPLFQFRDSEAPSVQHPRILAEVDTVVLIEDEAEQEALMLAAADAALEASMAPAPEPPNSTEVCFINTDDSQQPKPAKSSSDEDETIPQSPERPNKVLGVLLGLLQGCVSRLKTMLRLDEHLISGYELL
Assay: co-IP; cleared lysate of 10 ovary pairs in IP buffer (50 mM Tris pH 8, 150 mM NaCl, 1 mM CaCl2, 0.1% Tween-20, protease and phosphatase inhibitors); anti-FLAG M2 on Protein A/G agarose, 4 °C, 2 hours; Western blot for FLAG and HA

- binding: binds
B1: Drosophila Brca2 (CG30169), HA-tagged (protein, UniProt Q9W157 1-971)
chain: MDQNGASGSHPNRLSQGRGAHARERGATVSAAANRSNIIDEMAKICEADRQTFAIARRTRGHERLAVDNSDFVAVEDLILSYAEPTPEDQVEMIMSDFCSSPTYAEDEDEPSHESEPWFRFRNKRIRTYSRKRDPKSHKAVQNEKRRGSSGLSVQRDLNTSFTSMACDFDASSQKIHEVLLNLSQYFSATATASGPTPVPSQIDLPTEARQDSGDECFNAELENLRDDLLQSGFTFEASFYENEHEQEGPGTMADTIYGDSMQSVPTTRLRLESGKRNVWSDADSTLKKADVEIAENKKLLMGQTQAKNVDIEENTNFILEGIPLSEWLTPMELPEISKDVIKHIPDKKLKLEPSSQKEQKSSKDSNASKVRGASKQSCDINTKNEGTTILDQPNAAEQENLLNDGELLEEFLFNDWQPMQCSNGPSTSKNAIQGPKENINSINLDDKEQPEKQTPNKSQTISSHQLNGIRKKSFKFIEVSEEMKIKGEEFVDKVVSGLYHFSHKCNLRTEEYSDNHSQVMESTQCAEFKSAPSKPIEILDGKETYNAIAKVDVGEINGKFSPLNNDTIAEPEFCGFRTASNKAIPISEKMKIKTAEFMAEFQSKETIQQNDYLVHQPNDKPTSVGLDTALKRSIESSEEMRSKASKLVVVDTTMREPHQPTLDPVCRDLNESQFFGFRTASNKAIEITEAMEKRGAMFLAQSKATDQLNGWQPSDFPDVLPTSPNNEIHSINVENNKAVNTKTVSETEFFGFRTASNKGIVISENTKIKVAQFMSEFQAADASTDSNQPTVISEESRNIDAKFVDEAAAEDSANKPTFCNVQSLKNTSDIEHFKHDFFVEHSAKEEHPLCSQPLVRTPRRSQEIHSSLSQLAGKSPLDQATKKSVIARRNLLSLKRKRKIILSTETSTSCALPTMERFAPKPSSTSTPLADRDLNRSKDCTKNRQDAEDMSPICMQPKKSRRLGLSRSRY
